According to PubChem BioAssay AID1487 (National Center for Advancing Translational Sciences (NCATS), 2009):
Values joined by “and” are separate entries in the source; they are usually repeats but may differ in a detail not shown here. Identical values can stand only once. The list shows a part of the results. The main result of the screen is listed elsewhere. These columns were measured beside it and carry no call. Compounds called inactive in the main read-out are mostly missing here. Words in brackets tell the shape of the fitted curve; partial curves, single points and poor fits give uncertain potencies.

Test: qHTS Assay for Modulators of Lamin A Splicing
Settings: HeLa LMNA splicing GFP/RFP minigene ratio, 48 h
Procedure, shortened: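 S3 HeLa cells stably expressing lamin A-EGFP splicing minigene plus DsRed2, 600 cells/well, 48 h compound exposure at 37C. Laser-scanning cytometry; analysed as GFP (500-530 nm)/RFP (575-640 nm) total intensity ratio; 0.5% DMSO vehicle.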

[1] = measured here: GFP splicing reporter channel
[2] = measured here: RFP viability control channel

Structure (SMILES)	AC50 [1]	AC50 [2]
CCN(Cc1ccccc1)c1ccc(/C=N/NC(=O)c2cccc(S(=O)(=O)N3CCOCC3)c2)cc1	2.51 µM [rising, full curve]	6.31 µM [rising, partial curve]
Cc1ccc(S(=O)(=O)NCCCCCC(=O)Nc2ccccc2)cc1	7.08 µM [rising, full curve, poor fit]	7.94 µM [rising, partial curve]
Cc1ccccc1NCc1cccn1-c1nnc(N2CCC(C)CC2)s1	–	35.5 µM [rising, single point]
COc1cnn(-c2ccc(Br)cc2)c(=O)c1SCc1ccccc1	31.6 µM [rising, single point]	31.6 µM [rising, single point]
CCCNC(=O)c1cc(S(=O)(=O)N2CCc3ccccc32)ccc1F	–	35.5 µM [rising, single point]
CCN(CCCNC(=O)CCc1nc(-c2ccc(OC)cc2)no1)c1cccc(C)c1	–	31.6 µM [rising, single point]
CCOC(=O)c1c(C)[nH]c(C2=NNC(=Nc3ccccc3OC)SC2)c1C	–	25.1 µM [rising, single point]
Cc1ccc(NC(=O)c2sc3nc4c(c(-c5ccco5)c3c2N)CCC4)cc1	0.2 µM [rising, full curve, poor fit]	0.224 µM [rising, full curve, poor fit]
CC(C)N1C(=O)S/C(=C/c2ccc(Sc3nc4ccccc4[nH]3)o2)C1=O	–	4.47 µM [rising, full curve]
CCOC(=O)c1cccc(NC(=O)c2ccc3nc(Cc4ccccc4)oc3c2)c1	7.08 µM [rising, full curve, poor fit]	7.08 µM [rising, full curve]
COC(C(=O)NCc1ccccc1C)c1ccccc1 (stereo not given)	–	3.55 µM [rising, single point]
CC(C)NCC(O)COc1ccc(COCCOC(C)C)cc1 (stereo not given)	–	0.0501 µM [rising, full curve]
O=C(c1cc2nc(-c3ccc(F)cc3)cc(C(F)(F)F)n2n1)N1CCCC1	0.0398 µM [falling, full curve, poor fit]	–
O=[N+]([O-])c1ccc(Oc2cnc3ccccc3n2)cc1	35.5 µM [falling, single point]	25.1 µM [falling, single point]
CC(C)NC[C@@H](O)COc1ccc(CCOCC2CC2)cc1	2.51 µM [falling, partial curve]	3.55 µM [falling, partial curve, poor fit]
Cn1c(=O)n(C/C=C/c2ccccc2)c(=O)c2c1nc1n2CCN1c1ccccc1	–	3.55 µM [rising, partial curve]
COc1ccc(/C=C/C=C2\NC(=S)NC2=O)cc1	–	0.562 µM [rising, full curve, poor fit]
COc1ccc(C)cc1-n1nnnc1SCc1cc(=O)n2cc(C)ccc2n1	10 µM [rising, partial curve, poor fit]	7.08 µM [rising, partial curve]
O=C(Nc1ccc(F)cc1F)c1ccc(-n2cccn2)c([N+](=O)[O-])c1	0.02 µM [falling, full curve, poor fit]	–
CCC(CC)COC(=O)C(C#N)c1nc2ccccc2nc1N1CCN(CC)CC1 (stereo not given)	11.2 µM [rising, partial curve, poor fit]	15.8 µM [rising, single point]
CCc1nnc(NC(=O)CSc2nc(-c3ccccc3)c(-c3ccccc3)o2)s1	–	5.01 µM [rising, single point]
O=C(Nn1c(SCc2cccc([N+](=O)[O-])c2)nc2ccccc2c1=O)c1ccccc1	–	28.2 µM [rising, single point]
COc1ccccc1-c1nc(NCCc2cnc[nH]2)c2ccccc2n1	12.6 µM [falling, partial curve]	–
O=C(C(Cc1ccccc1)n1cccc1)N1CCN(c2cccc(Cl)c2)CC1 (stereo not given)	–	35.5 µM [rising, single point]
O=C(c1cccc(S(=O)(=O)Nc2ccccc2Cl)c1)N1CCN(C(=O)c2ccco2)CC1	–	4.47 µM [falling, partial curve]
CCCOc1ccc(C2=NNC(c3cccs3)=Nc3ccc(OC)cc32)cc1	20 µM [rising, single point]	22.4 µM [rising, partial curve]
Cc1ccc(NC2=C/C(=N\S(=O)(=O)c3cccs3)c3ccccc3C2=O)c(C)c1	4.47 µM [falling, full curve]	3.98 µM [falling, full curve]
O=C(Nc1ccc2c(c1)OCCO2)NC12CC3CC(CC(C3)C1)C2	35.5 µM [rising, single point]	35.5 µM [rising, single point]

Structure (SMILES)	AC50 [1]	AC50 [2]
c1ccc(SCc2nc3ccccc3[nH]2)nc1	10 µM [rising, partial curve, poor fit]	11.2 µM [rising, partial curve]
O=c1cc(-c2ccc(O)cc2)oc2cc(O)cc(O)c12	14.1 µM [falling, single point] and 12.6 µM [falling, partial curve]	12.6 µM [falling, single point] and 11.2 µM [falling, partial curve]
COc1cccc(CNn2c(-c3cccc(C)c3)nc3ccccc3c2=O)c1O	–	11.2 µM [rising, single point]
CN(C)S(=O)(=O)c1cccc(NC(=O)COc2nc3ccccc3nc2N2CCOCC2)c1	–	35.5 µM [rising, single point]
COc1cc(Cl)nn(-c2ccccc2)c1=O	22.4 µM [falling, partial curve]	11.2 µM [falling, partial curve, poor fit]
COc1cccc(-n2ccnc2SCC(=O)Nc2c(C)cc(C)cc2C)c1	12.6 µM [falling, partial curve, poor fit]	0.178 µM [falling, full curve, poor fit]
Cc1cc(C)c(NC(=O)Cn2c(=O)c3cccn3c3ccccc32)c(C)c1	–	11.2 µM [rising, partial curve]
O=C(/C=C/c1cccc([N+](=O)[O-])c1)Nc1cccc(NC(=O)c2ccco2)c1	–	20 µM [rising, single point]
COC(c1ccccc1)c1nnc(CCC(=O)N2CCN(CCOc3ccccc3)CC2)o1 (stereo not given)	0.708 µM [falling, single point]	–
CCOCCCNC(=O)c1ccc(-n2c(-c3ccccc3)cc3c2CCCC3)cc1	35.5 µM [falling, single point]	–
Cc1ccc2cccc(Oc3ncnc4scc(-c5ccccc5)c34)c2n1	–	11.2 µM [rising, single point]
CC(C)(C)C(=O)NC(=S)Nc1ccc(F)cc1	–	0.0631 µM [falling, full curve, poor fit]
CC(O)CNc1nc2sc3c(c2c(=O)n1CCc1ccccc1)CCCCC3 (stereo not given)	–	8.91 µM [rising, partial curve, poor fit]
N=C(N)SCCc1cccc(CCSC(=N)N)c1	7.94 µM [rising, partial curve, poor fit]	11.2 µM [rising, partial curve]
COc1ccccc1Oc1ccc(S(=O)(=O)Nc2cccnc2)cc1	4.47 µM [rising, partial curve]	3.16 µM [rising, partial curve]
CC1CCN(CCc2nc3cc(NS(=O)(=O)c4ccc(F)cc4)ccc3n2C)CC1	–	12.6 µM [rising, single point]
O=C(CS(=O)(=O)c1cccc2nsnc12)Nc1ccccc1Cl	0.0224 µM [falling, full curve, poor fit]	–
CN(C)c1ccc(N/C=C/C(=O)C(F)(F)F)cc1	–	0.00708 µM [rising, full curve, poor fit]
COc1ccc(CNC(=O)CSc2nnnn2Cc2ccccc2)cc1	20 µM [falling, partial curve, poor fit]	0.00708 µM [falling, full curve, poor fit]
CC(NC(=O)COc1ccc(/C=N/NS(=O)(=O)c2ccccc2)cc1)c1ccccc1 (stereo not given)	14.1 µM [rising, partial curve]	12.6 µM [rising, partial curve]
Cc1cc(Cl)ccc1NC(=S)N1CCN(Cc2ccccc2)CC1	–	12.6 µM [rising, partial curve, poor fit]
NCCC(=O)NCCc1cnc[nH]1	–	1.58 µM [falling, full curve, poor fit]
O=C(/C=C/c1cccc(Cl)c1)Nc1ncccn1	–	20 µM [rising, single point]
COc1ccc(C)c2sc(NC(=O)C3=COCCO3)nc12	–	10 µM [rising, partial curve, poor fit]
COc1ccc(CCNC(=O)c2ccc(-c3ccc([N+](=O)[O-])cc3)o2)cc1OC	–	11.2 µM [rising, partial curve]
COCCn1c(C)cc(C(=O)CSc2nc3ccccc3c(=O)n2C(C)COC)c1C (stereo not given)	8.91 µM [falling, partial curve]	–
O=C(c1ccc(N2CCC3(CC2)OCCO3)c([N+](=O)[O-])c1)N1CCOCC1	0.708 µM [rising, full curve, poor fit]	–
